Paper PMC3233689 (The Journal of neuroscience : the official journal of the …, 2011)

Legend:
RDL receptor F206-FPhe = conditions: GABA
RDL receptor F206-F3Phe = conditions: GABA

## NCCCC(=O)O [GABA]
RDL receptor Y254F2-Phe
  increase in EC50: ~10 fold
RDL receptor Y254F2-Phe; GABA, Y254F2-Phe
  EC50: 733 µM
RDL receptor Y254F3-Phe
  increase in EC50: ~33 fold
RDL receptor Y254F3-Phe; GABA, Y254F3-Phe
  EC50: 2520 µM
RDL receptor F206-FPhe
  EC50: 65 µM
RDL receptor F206-FPhe; printed as negative log
  Log EC50 (M): -4.190 ± 0.05 M
RDL receptor Y254-FPhe
  increase in EC50: ~1.5 fold
RDL receptor Y254-FPhe; GABA, Y254-FPhe
  EC50: 110 µM
RDL receptor Y254-FPhe; GABA, Y254-FPhe, printed as negative log
  Log EC50 (M): -3.995 ± 0.07 M
RDL receptor F146F3Phe; GABA, F146F3Phe, printed as negative log
  Log EC50 (M): -4.084 ± 0.15 M
RDL receptor F146F3Phe; Phe146 substituted with F3-Phe, compared to WT
  increase in GABA EC50: < 4 fold
RDL receptor F206-F3Phe
  EC50: 1020 µM
RDL receptor F206-F3Phe; printed as negative log
  Log EC50 (M): -2.990 ± 0.04 M
